The match of structure and compound is tentative.
Experiments:
[1] = tested on: C57BL/6 mice; assay: Inflammatory bowel disease model: 3% DSS drinking water, DAI score; conditions: mean ± SEM
Description: Experimental animals: C57BL/6 mice, from Guangdong Vital River Laboratory Animal Technology Co., Ltd.
C57BL/6 mice were used. 3% DSS (Dextran Sulfate Sodium) (Supplier: MPBIO, Lot No.: YD11024) in water was prepared as drinking water for the mice.
During the experiment, the animals were weighed at a fixed time daily, and their status (including feces, mortality) was observed. The efficacy was evaluated by the DAI score. The details of the DAI scoring criteria are as follows: 0 point for normal stool, 1 point for soft but formed stool, 2 points for soft stool, 3 points for soft and wet stool, 4 points for loose stool; 0-1 point for no occult blood, 2 points for occult blood positive, 3 points for visible blood in stool, 4 points for severe fecal blood; 0 point for no weight loss or weight gain, 1 point for weight loss of 1%-5%, 2 points for weight loss of 6%-10%, 3 points for weight loss of 11%-15%, 4 points for weight loss > 15%. The sum of the scores for 3 items is the total DAI score, and the weighing and scoring were carried out every other day. […] The DAI scores are shown in Table 5, and the data are presented as mean + standard error of the mean (SEM): Table 5

By UniProt entry, the sequences of proteins in these tests, tags left out.
UniProt Q96LB1, whole entry: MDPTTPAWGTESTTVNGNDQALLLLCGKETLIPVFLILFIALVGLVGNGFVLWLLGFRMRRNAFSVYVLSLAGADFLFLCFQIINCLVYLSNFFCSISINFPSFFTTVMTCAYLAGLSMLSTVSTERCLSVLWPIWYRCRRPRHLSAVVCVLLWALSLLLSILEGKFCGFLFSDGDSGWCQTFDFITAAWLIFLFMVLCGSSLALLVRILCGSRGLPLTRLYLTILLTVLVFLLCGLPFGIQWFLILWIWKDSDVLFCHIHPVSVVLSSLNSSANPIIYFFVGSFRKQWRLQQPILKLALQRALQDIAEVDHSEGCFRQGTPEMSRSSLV

[2] = biological target: human MRGPRX2 (Homo sapiens, UniProt Q96LB1); assay: In vitro target binding assay: BRET between MRGPRX2-Nluc and Venus-β-arrestin1 in transfected HEK-293T cells, antagonist mode against agonist R-ZINC-3573 (EC80); conditions: antagonism of agonist R-ZINC-3573 at EC80, net BRET
Text: Bioluminescence Resonance Energy Transfer (BRET) is an important biophysical technique for monitoring molecular interactions, and has been widely used to study protein-protein interactions in living cells. This technique requires the relevant proteins to be linked to an energy donor (such as luciferase) and an acceptor (such as a fluorescent protein). When a relevant drug molecule interacts with the protein, the protein structure alters, causing a change in the distance between the energy donor and the energy acceptor. The luminescence energy induced by the chemical reaction is transferred to the corresponding acceptor, resulting in increased acceptor emission, and generating a BRET signal. In this work, a DNA-synthesized target human MRGPRX2 and a donor luciferase Nluc (NanoLuc®Promega) (Supplier: Beijing Tsingke, Lot No.: SZ0171228-1), as well as an acceptor fluorescent protein Venus and the relevant test protein, namely human β-arrestin1 (ARRB1) (Supplier: Guangzhou Dahong Biotechnology, Lot No. HY22694-4396), were utilized, and were inserted into the eukaryotic expression vector plasmid pcDNA3.1(+) (Supplier: Qiyun Bio, Lot No.: QY2310) as fusion genes via a Linker sequence (GGSG). The cell line selected for the experiment was human embryonic kidney cells HEK-293T. The human embryonic kidney cell line HEK-293T was routinely cultured in 10 cm cell culture dishes using complete culture medium consisting of high-glucose DMEM medium supplemented with 10% (V/V) fetal bovine serum. Cells were seeded at 2×10^6 cells/10 cm dish on the first day of culture, and passaged every 72 h with the same number of cells. One day prior to transfection, cells were resuspended, counted, and seeded at a density of 2×10^6 cells/6 cm dish or 4×10^6 cells/10 cm dish. Transfection was carried out 16-24 h after seeding. Plasmids constructed with the fusion protein gene were transfected into the expression cell line, and the transfected cells were cultured under appropriate conditions for a period of time to allow sufficient expression of the fusion proteins. Transfection was performed by encapsulating plasmid DNA with PEI reagent, and the encapsulation process should to be carried out in Opti-MEM medium. The ratio of plasmid, PEI (Supplier: Yeasen Biotechnology, Lot No.: WP5430010), and Opti-MEM (Supplier: Gibco, Lot No.: 2883564) was 1:4:14 (W: W: V). The encapsulated plasmid was added to an appropriate amount of complete culture medium, amd gently mixed, which was then used to replace the existing culture medium of the previously plated cells. Cells were harvested 24 h after transfection. Subsequently, cells were resuspended using HBSS (Source: Biosharp, Lot No.: 24179687) and counted with a cell counter. The cells were diluted to a density of (3~5) ×10^5 cells/mL, and then seeded into a flat-bottom white 96-well microplate at 100 µ L/well, resulting in (3~5) ×10^4 cells per well. In each well, 10 µ L of antagonist compounds diluted with HBSS a different concentrations were added firstly, then the agonist compound at a specific concentration (EC80) was added. After reacting for 2 min, the substrate Furimazine (Supplier: TargetMol, Lot No.: 362434) at a final concentration of 10 µM was added. After reacting for another 2 min, the 96-well plate was placed in a PHERAstar FSX microplate reader (Supplier: BMG Labtech) to simultaneously measure the readings at wavelengths of 440 nm and 530 nm. Based on the fluorescence readings at 440 nm and 530 nm, the Ratio and net BRET were calculated. Ratio = Em530 nm / Em440 nm, and net BRET = Ratio co-transfection - Ratio single-transfection. The calculated net BRET values were inputted into GraphPad Prism 9, and curve fitting via nonlinear regression (four-parameter equation) and IC50 calculation were performed.

[3] = tested on: BALB/c mice; assay: Psoriasis model: imiquimod cream on mouse back, PASI score; conditions: 4mg/g Topical application, once daily, mean ± SEM
Description: (§1) Experimental animals: BALB/c mice, from Guangdong Vital River Laboratory Animal Technology Co., Ltd.
The clinical severity of psoriasis was assessed using the Psoriasis Area and Severity Index (PASI) score. The PASI scoring criteria for mice are as follows:
The hair on the back of the mice was shaved, and the application area was marked with a marker pen. Imiquimod cream (Supplier: Sichuan Mingxin Pharmaceutical, Lot No.: 24054002) was applied to the back of the mice for several consecutive days to establish a mouse model of psoriasis. Before daily application, the residual cream was removed using pure water.
Administration was initiated on the day of grouping, which was designated as D1, and was performed once daily for 8 consecutive days. The normal control group and the model control group were administered with vehicle alone under the same conditions. Mice were scored according to the PASI (Psoriasis area and severity index). The administration regimen for the mouse psoriasis model was as follows: […]

[4] = tested on: BALB/c mice; assay: Allergic rhinitis model: OVA sensitization and nasal challenge, number of sneezes; conditions: 5mg/kg p.o. once daily, within 10 min after the nasal challenge
Description: as §1
Modeling was initiated on the day of grouping, which was designated as M1. Except for the normal group, mice in all modeling groups were intraperitoneally injected with a sensitization solution of (250 µg OVA (Ovalbumin) (Supplier: Shanghai Macklin, Lot No.: C16255388) mixed with 5 mg aluminum hydroxide/mL) per mouse, while the normal control group was given an equal volume of sterile PBS solution. The injection cycle was M1, M7, and M14. Starting from M21, challenge was carried out by nasal instillation once daily for 7 consecutive days. The challenge solution was a 50 mg/mL OVA solution, and a volume of 10 µL was instilled into each nostril per time. The normal control group was not subjected to nasal instillation.
Administration was initiated on the day of the challenge by nasal instillation, which was designated as D1, and was performed once daily for 7 consecutive days. The normal control group and the model control group were administered with vehicle alone under the same conditions:
The number of sneezes in each group was recorded within 10 min after the nasal challenge every day during the administration period.

[5] = tested on: BALB/c mice; assay: Rosacea model: intradermal LL-37 in mice, erythema score; conditions: once daily, score 0-4, mean ± SEM
Text: as §1
The hair on the back of the mice was shaved, and the modeling area was marked on the back skin, avoiding positions with abundant subcutaneous blood vessels. LL-37 (an antimicrobial peptide used for rosacea modeling) (Supplier: QYAOBlO (ChinaPeptides), Lot No.: 20240319) solution was drawn with a microsyringe and injected intradermally along the intradermal path. The needle was withdrawn slowly after injection. The modeling continued for 5 to 7 days, with injections administered twice a day.
Administration was initiated on the day of grouping, which was designated as D1, and was performed once daily for 7 consecutive days. The normal control group and the model control group were administered with vehicle alone under the same conditions. The changes in skin lesions at the injection site on the back of mice in each group were observed, and scores ranging from 0 to 4 were assigned based on the degree of erythema, wherein, a score of 0 indicates no erythema, a score of 1 indicates barely visible erythema, a score of 2 indicates pale erythema with blurred boundaries, a score of 3 indicates erythema with clear boundaries, and a score of 4 indicates dark erythema with clear boundaries. The administration regimen for the mouse rosacea model was as follows: […]

Structure (SMILES)	IC50 [2]	DAI score ([1]; D1, 20mg/kg QD p.o.)	DAI score ([1]; D2, 20mg/kg QD p.o.)	DAI score ([1]; D3, 20mg/kg QD p.o.)	DAI score ([1]; D4, 20mg/kg QD p.o.)	DAI score ([1]; D5, 20mg/kg QD p.o.)	PASI score ([3]; D1)	PASI score ([3]; D2)	PASI score ([3]; D3)	other results
O=C(O)c1cn(C2CC2)c2cc(-c3ccc(S(=O)(=O)N4CCC4)nc3)c(F)cc2c1=O	1 to 10 µM	0.00±0.00	1.0±1.0	1.9±1.2	2.8±1.6	3.3±1.1	–	–	–	DAI score ([1]; D6, 20mg/kg QD p.o.): 4.8±1.6
CCCS(=O)(=O)Nc1ccc(-c2cc3c(cc2F)c(=O)c(C(=O)O)cn3C2CC2)cn1	1 to 10 µM	–	–	–	–	–	0	0.6±0.3	1.9±0.3	PASI score ([3]; D4): 3.1±0.3; PASI score ([3]; D5): 3.9±0.4
O=C(O)c1cn(C2CC2)c2c(Cl)c(-c3ccc(S(=O)(=O)N4CC(F)(F)C4)cn3)c(F)cc2c1=O	1 to 10 µM	–	–	–	–	–	–	–	–	erythema score ([5]; D1, 4mg/g Topical application): 1.6±0.3; erythema score ([5]; D1, 40mg/kg Oral): 1.7±0.2; erythema score ([5]; D7, 4mg/g Topical application): 1.3±0.2; erythema score ([5]; D7, 40mg/kg Oral): 1.2±0.2
O=C(O)c1cn(C2CC2)c2cc(-c3ccc(S(=O)(=O)N4CC(F)(F)C4)nc3)c(F)cc2c1=O	1 to 10 µM	–	–	–	–	–	0	0.5±0.3	1.8±0.3	–
NC(=O)c1cc(-c2c(F)cc3c(=O)c(C(=O)O)cn(C4CC4)c3c2F)ccn1	1 to 10 µM	–	–	–	–	–	0	0.6±0.3	1.6±0.3	PASI score ([3]; D4): 2.7±0.4
CCCCCNS(=O)(=O)c1ccc(-c2cc3c(cc2F)c(=O)c(C(=O)OC)cn3C2CC2)cn1	1 to 10 µM	–	–	–	–	–	–	–	–	number of sneezes ([4]; D1): 2.4 number of sneezes/mouse; number of sneezes ([4]; D2): 1.3 number of sneezes/mouse; number of sneezes ([4]; D3): 14.5 number of sneezes/mouse; number of sneezes ([4]; D4): 7.6 number of sneezes/mouse; number of sneezes ([4]; D5): 7.2 number of sneezes/mouse; number of sneezes ([4]; D6): 13.4 number of sneezes/mouse; number of sneezes ([4]; D7): 14.8 number of sneezes/mouse

Second part, led by results:

IC50 [2]	Structure (SMILES)	DAI score ([1]; D1, 20mg/kg QD p.o.)	DAI score ([1]; D2, 20mg/kg QD p.o.)	DAI score ([1]; D3, 20mg/kg QD p.o.)	DAI score ([1]; D4, 20mg/kg QD p.o.)	DAI score ([1]; D5, 20mg/kg QD p.o.)	PASI score ([3]; D1)	PASI score ([3]; D2)	PASI score ([3]; D3)	other results
1 to 10 µM	CCCNS(=O)(=O)c1ccc(-c2c(F)cc3c(=O)c(C(=O)OC)cn(C4CC4)c3c2OC)cc1	0.00±0.00	1.0±1.0	1.6±1.2	2.8±1.4	3.3±1.2	–	–	–	DAI score ([1]; D6, 20mg/kg QD p.o.): 5.0±1.6
0.1 to 1 µM	CCCCCCCNS(=O)(=O)c1ccc(-c2c(F)cc3c(=O)c(C(=O)O)cn(C4CC4)c3c2OC)nc1	–	–	–	–	–	–	–	–	number of sneezes ([4]; D1): 1.5 number of sneezes/mouse; number of sneezes ([4]; D2): 4.7 number of sneezes/mouse; number of sneezes ([4]; D3): 15.2 number of sneezes/mouse; number of sneezes ([4]; D4): 13.5 number of sneezes/mouse; number of sneezes ([4]; D5): 9.8 number of sneezes/mouse; number of sneezes ([4]; D6): 14.0 number of sneezes/mouse; number of sneezes ([4]; D7): 12.0 number of sneezes/mouse
0.1 to 1 µM	CCCCCCCCCNS(=O)(=O)c1ccc(-c2c(F)cc3c(=O)c(C(=O)OC)cn(C4CC4)c3c2OC)cc1	0.00±0.00	1.1±1.0	1.9±1.3	2.9±1.1	3.5±1.3	–	–	–	–

Source: patent EP4834881A1, “QUINOLONE COMPOUNDS AND USE THEREOF” (dated 2026)
